# Reference: PubChem BioAssay AID1508600 (Functional Genomics Laboratory (NCATS/FGL), 2020)
# In all, about 53,000 sequences went through this assay and about 3,700 (7%) were called active.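 How the source made its calls: active means gene knockdowns whose robust z-score for IL-1 alpha signal is at least 2 or at most -2, so actives lie on both sides; inactive means the rest.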 Some of the results follow.
# Experiment: Components of the Cytosolic LPS Sensing Pathway: Gene Identification via Genome-wide siRNA Screen;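 further: robust z of the log signal after scaling to non-targeting control siRNA wells of the plate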
# Details: RAW264.7 macrophages, IL-1a HTRF, actives lie on both sides, screened at 100 nM (by protocol), cells primed 5 h with Pam3CSK4 first
# Method in brief: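 Supernatant IL-1a by HTRF from RAW264.7 cells primed with Pam3CSK4 (5 hours) and transfected with LipidA (24 hour) after 48h siRNA knockdown at 100 nM; cell viability checked with CellTiter-Glo.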
row,Sequence,z-score
1,GGAGUUUUUACUAUCAAAGTT against Gm527,inactive: 0.739
2,GUGGUCUUUAGUGGUGCUCTT against Mtag2,inactive: 1.12
3,GGACUAAGUAUAGAAUUCATT against Gdnf,inactive: 1.7
4,CGAUGAUGAACGAUGGACATT against Mmp3,active: 2.47
5,GGAACAAAAGGUUCCUUUUTT against Kank4,inactive: 0.214
6,GGCAGCAUUAUCAACCGGATT against Gipc3,inactive: -0.0873
7,GCUCAUCGGUCAGAUCAAATT against Syt3,inactive: 1.31
8,CGGAAAUAAGUUUCCCUUGTT against 2310039H08Rik,inactive: 0.676
9,GGCUCCAGUACGUCAUCCUTT against Mon2,inactive: 0.701
10,CGUGUACAUGCUCUACUUUTT against Pla2g15,inactive: 1.48
11,GGUUUGCACACACUUUGCCTT against Adgrb2,inactive: -0.624
12,GGAAUAAAAGGAGAGAAAGTT against Slc14a2,inactive: 0.0389
13,CGGUGACGAACAACUUGAATT against Tpm1,inactive: -0.12
14,GGAGAUUAAAGCUUCAAAATT against Ldhd,inactive: -0.387
15,GGAAACAGGAUUAAGCUAGTT against Ankrd27,inactive: 0.587
16,CGUGUCCAAAGGUGAAUCATT against Psmd1,inactive: -0.767
17,GGACUAUGUCAUCAAGAUUTT against Napsa,inactive: -0.137
18,GGAAAGGAUCCAGACUUUATT against Crisp2,inactive: 0.171
19,GGAGAGAAUACUAUUUCAATT against Pknox1,inactive: 1.51
20,GCGGGAAUGGAACGAAAACTT against Otx1,inactive: 0.929
21,GCUAAACUCCACCAAGACATT against Grid2ip,inactive: 0.338
22,GCAAAGGAUCCAAUUUUAGTT against Rnf227,inactive: 1.28
23,CCUUUCCUUUAUUGAUCUCTT against Olfr888,inactive: 0.272
24,GGAGGAAAAGUAGGUUUGCTT against Peli1,inactive: -0.531
25,GGAGUGUUUCCAGAGAGCATT against Meak7,inactive: 0.119
26,GCUCAGUAAGGUUACUUCCTT against Dmtn,inactive: 0.357
27,CGUACUCAAAGGCUAACCGTT against Lamc1,inactive: -1.22
28,GGCAGAUGUCAUCAAUGCUTT against Tspan31,inactive: -0.518
29,CCACUACGUUGUUGAUCACTT against Pcdhga11,inactive: 0.286
30,GGAACUGGUGUCAGUGUUGTT against Psmd14,inactive: -1.53

# Reprinted from above (two entries):
row,Sequence,z-score
8,CGGAAAUAAGUUUCCCUUGTT against 2310039H08Rik,inactive: 0.676
9,GGCUCCAGUACGUCAUCCUTT against Mon2,inactive: 0.701
